# Reference: the supplement of paper PMC10735217
# The list shows a part of the results. This data set is noisy: repeats of one test often differ as much as different tests do.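 Human kidney-derived cells stably carry a construct in which eight TEAD-binding elements drive luciferase, measured by luminescence in a drug-repurposing library screen. A hit is any compound whose signal exceeds the plate mean by more than five robust Z scores.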
# Tested on: HEK293A TEAD-LUC reporter
# Test: TEAD-luciferase reporter activity (YAP activation), robust Z score vs plate; higher = stronger YAP/TEAD activation
# Settings: 24 h
SMILES,TEAD-luciferase reporter activity (compound concentration: 200 nM),TEAD-luciferase reporter activity (compound concentration: 2 uM),TEAD-luciferase reporter activity (compound concentration: 10 uM)
CC(C)(O)CC(C)(O)c1ccc(Cl)cc1 (stereo not drawn),inactive: 0.559,inactive: 0.0109,inactive: -0.297
CN1C(=O)NC(c2ccccc2)C1=O (stereo not drawn),inactive: -0.345,inactive: -0.363,inactive: 0.417
Cc1nc2cnccc2n1-c1ccc(OCc2cccc(C=Cc3ccc4ccc(Cl)cc4n3)c2)cc1,inactive: -1.22,inactive: -0.292,inactive: 1.73
CC1(C)OCCn2c1nc1c(N3CCOCC3)nc(-c3cnc(N)nc3)nc12,inactive: -1.35,inactive: -0.723,inactive: -0.703
CC[C@@H](Nc1c(Nc2cccc(C(=O)N(C)C)c2O)c(=O)c1=O)c1ccc(C)o1 [Navarixin],inactive: 0.179,inactive: -0.207,inactive: 1.66
CC[C@@H](Nc1c(Nc2cccc(C(=O)N(C)C)c2O)c(=O)c1=O)c1ccc(C)o1,–,inactive: -0.929,–
O=C(O)C1CCCN1C(=O)C12CC3CC(CC(C3)C1)C2 (stereo not drawn) [1-(1-adamantylcarbonyl)proline],inactive: -1.34,inactive: -0.217,inactive: -1.58
CC(C)Oc1ccc2c(=O)c3cc(C(=O)O)ccc3oc2c1,inactive: 0.96,inactive: 0.546,inactive: 1.55
Oc1ncc(/N=C/c2cc(Cl)cc(Cl)c2O)c(O)n1,inactive: -0.4,inactive: -0.737,inactive: 2.16
O=C(O)c1ccc(NS(=O)(=O)c2ccccc2)cc1O,inactive: -0.785,inactive: -2.14,inactive: -2.05
Cc1cc(Br)c(O)c2ncccc12,inactive: 0.0499,inactive: 0.772,inactive: 0.588
CCCC(=O)c1cc(F)ccc1OCC(O)CNC(C)(C)C (stereo not drawn) [butofilolol],inactive: -1.15,inactive: -0.366,inactive: -0.323
CC1=C\C(O)CC(=O)Cc2nc(co2)C(=O)NC(C)C(=O)OC(C(C)C)C(C)/C=C/C(=O)NC\C=C\1 (stereo not drawn),inactive: -0.448,inactive: -2.18,inactive: -0.245
COc1ccc(C(=O)NC2CCCN(Cc3ccc(-c4cccc(OC)c4)cc3)C2)cc1 (stereo not drawn),inactive: -0.184,–,inactive: -0.433
CCCCOc1ccc(C(=O)NC(=S)Nc2cccc(C(F)(F)F)c2)cc1,inactive: -1.06,inactive: -0.783,inactive: 0.341
CCCCCCCCCC(=O)OCCN1CCN(CCCN2c3ccccc3Sc3ccc(C(F)(F)F)cc32)CC1 [Fluphenazine decanoate],inactive: -1.03,inactive: -2.51,inactive: -0.653
CC(=O)N1CCC2(CC1)CN(C(C)=O)Cc1ccccc1O2,inactive: -1.3,–,inactive: 0.288
Cc1ncc([N+](=O)[O-])n1CC(C)O (stereo not drawn) [1-(2-Methyl-5-nitro-imidazol-1-yl)-propan-2-ol],inactive: -0.797,–,inactive: 0.594
Cc1ncc([N+](=O)[O-])n1CC(C)O (stereo not drawn) [secnidazole],–,inactive: -0.497,–
O=S(=O)(N[C@H](CO)C(C(F)(F)F)C(F)(F)F)c1ccc(Cl)s1 [Begacestat],inactive: -0.874,inactive: -0.218,inactive: 0.521
O=C1CCC(c2ccc(NC(=O)CCN3CCC(c4ccccc4)CC3)cc2)=NN1 [Altapizone],inactive: -0.928,inactive: 0.789,inactive: -1.07
CC[C@H](C)[C@H](NC(=O)[C@H](Cc1ccccc1)NC(=O)[C@H](C)NC(=O)[C@H](CC(=O)O)NC(=O)[C@H](CCCCN)NC(=O)[C@H](CO)NC(=O)[C@@H]1CCCN1C(=O)[C@@H]1CCC(=O)N1)C(=O)NCC(=O)N[C@@H](CC(C)C)C(=O)N[C@@H](CCSC)C(N)=O [Eledoisin],inactive: 0.538,–,inactive: 0.358
O[C@@](Cn1cnnn1)(c1ccc(F)cc1F)C(F)(F)c1ccc(-c2ccc(OCC(F)(F)F)cc2)cn1,inactive: 1.02,inactive: 0.13,inactive: 0.907
CC(C)Cc1ccc(CC(=O)O)cc1,inactive: -0.974,inactive: -0.0976,inactive: -1.61
CCCn1c(=O)c2[nH]c(C34CCC(CCC(=O)O)(CC3)CC4)nc2n(CCC)c1=O,inactive: -0.608,inactive: -0.609,inactive: -0.759
CCOc1ccc(OCC(=O)C2CCCC2)cc1,inactive: 4.99,active: 5.13,active: 6.35
COC1=CC(=O)OC1C(O)c1ccc(Cl)cc1Cl (stereo not drawn),inactive: 0.989,inactive: -0.949,inactive: -0.895

# Two entries from above, as tab-separated lines:
SMILES	TEAD-luciferase reporter activity (compound concentration: 200 nM)	TEAD-luciferase reporter activity (compound concentration: 2 uM)	TEAD-luciferase reporter activity (compound concentration: 10 uM)
CC1=C\C(O)CC(=O)Cc2nc(co2)C(=O)NC(C)C(=O)OC(C(C)C)C(C)/C=C/C(=O)NC\C=C\1 (stereo not drawn)	inactive: -0.448	inactive: -2.18	inactive: -0.245
CC(C)Cc1ccc(CC(=O)O)cc1	inactive: -0.974	inactive: -0.0976	inactive: -1.61
